A short description of the assay: qHTS Assay for Lipid Storage Modulators in Drosophila S3 Cells.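 For cell number change: cells counted by Cell Tracker Red CMTPX staining in the red channel.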 The note with it: BODIPY lipid droplet fluorescence, 18-24 h; for cell number change: measured here: cell count max response, cells fed with added oleic acid. Put shortly:
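Laser-scanning cytometry quantifies lipid droplet accumulation (500–530 nm total intensity; droplet/cell object ratio) in oleic acid-fed (400 uM added) Drosophila S3 cells treated with a concentration series. 20 uM Triacsin C defined 100% inhibition.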

The mark [1] stands for this setting: measured here: lipid fluorescence (Fed channel) AC50, cells fed with added oleic acid.
Setting [2] is: measured here: cell number channel AC50, cells fed with added oleic acid.

Some of the results follow. Further columns of the screen follow, without active or inactive calls. Most of these compounds were active or inconclusive in the main read-out, so they are no random draw. Potencies come from curve fits of mixed quality, noted in brackets.

The AC50 is the concentration giving half of the maximal activity seen. Consider `CCN(CC)S(=O)(=O)c1cccc(C(=O)NNC(=O)C2=NN(c3ccccc3)C(=O)CC2)c1`, for which the cell number change was 1.19%. For the same compound, the AC50 under setting [1] was 4.11 µM [rising, partial curve].

On to `COc1cccc(Nc2nc(-c3ccc(O)cc3)cs2)c1`, for which the AC50 under setting [2] was 0.13 µM [rising, partial curve, poor fit] and the AC50 under setting [1] was 14.6 µM [rising, partial curve].

`COCCN(CCOC)S(=O)(=O)c1ccc(C(=O)Nc2nc(-c3ccccc3)c(C(=O)c3ccccc3)s2)cc1`: the cell number change worked out at 30.3%. Besides, the AC50 under setting [2] was 10.3 µM [rising, single point].

Consider `CC(=O)c1cc2c(cc1NC(=O)c1ccco1)OCCO2`, for which the cell number change is -44.1%. Besides, the AC50 under setting [2] is 29.1 µM [falling, single point]. For the same compound, the AC50 under setting [1] was 29.1 µM [falling, single point].

Take `CCN(Cc1ccc(O)cc1)CC1CCCN(CCc2cccc(F)c2)C1` (stereo not given): the cell number change is -13.8%. Also, the AC50 under setting [1] was 0.146 µM [rising, partial curve, poor fit].

As to `Cc1cc(C)cc(OCC(=O)OCC(=O)N2CC(=O)Nc3ccccc32)c1`, the cell number change is -43.9%. Further, the AC50 under setting [2] is 18.4 µM [falling, single point].

In the case of `COc1cc2c(cc1OC)CN(c1ccc([N+](=O)[O-])cc1Cl)CC2`, the cell number change was determined as 11.8%. The AC50 under setting [1] is 7.31 µM [rising, partial curve].

Consider `CCn1c(SCC(=O)Nc2ccccc2)nnc1-c1cccs1`, for which the cell number change stood at 0.454%. Also, the AC50 under setting [1] was 0.92 µM [rising, full curve, poor fit].

On to `O=C(NC1CCSC1=O)c1cccc(Cl)c1` (stereo not given), for which the cell number change is -36.2%. For the same compound, under setting [2], the AC50 is 32.6 µM [falling, single point]. For the same compound, the AC50 under setting [1] was 0.103 µM [falling, full curve, poor fit].

In the case of `O=C(Cc1ccccc1)c1c[nH]c(C(=O)NCc2ccncc2)c1`, the cell number change came out at 22.8%.

On to `N#Cc1c2n(c3c(=O)[nH]cnc13)CCCC2`, for which the cell number change worked out at 8.32%. Further, the AC50 under setting [1] was 0.058 µM [rising, full curve, poor fit].

As for `O=C(N/C(=C/c1ccc(Br)cc1)C(=O)N1CCCC1)c1ccccc1F`, the cell number change came to 25.4%. The AC50 under setting [1] was 14.6 µM [rising, partial curve].

As for `CCSc1nc2c(sc3ccccc32)c(=O)n1C(C)C`, the AC50 is 6.51 µM [rising, partial curve, poor fit] under setting [2] and 6.51 µM [rising, partial curve] under setting [1].

For the compound `O=S(=O)(NC1CC1)c1ccc(S(=O)(=O)N(Cc2ccccn2)C2CCCC2)cc1`, the AC50 under setting [1] is 0.58 µM [rising, single point].

For `Cc1ccc(C(=O)N/N=C/c2c[nH]c3ccccc23)o1`, the cell number change is -9.46%.

With `Cc1cc(C)nc(N2CCCC(C(=O)Nc3ccc4c(c3)OCO4)C2)n1` (stereo not given), the cell number change amounted to 6.22%. The concentration at half-maximal activity (AC50) under setting [1] is 0.366 µM [rising, full curve].

On to `Cc1ccc(NC(=O)C2CCCN2S(=O)(=O)c2ccc3c(c2)n(C)c(=O)c(=O)n3C)cc1` (stereo not given), for which the cell number change was -7.04%.

With `O=C(CN1C(=O)NC2(CCc3ccccc32)C1=O)Nc1ccccc1C(F)(F)F` (stereo not given), the cell number change was 2.05%. Moreover, the AC50 under setting [1] was 0.0259 µM [rising, full curve, poor fit].

On to `CCOc1ccccc1NC(=O)c1ccccc1-c1nc(-c2ccccc2)no1`, for which the cell number change is -34.9%. Further, the concentration at half-maximal activity (AC50) under setting [2] is 20.6 µM [falling, partial curve, poor fit]. In addition, the AC50 under setting [1] was 2.06 µM [rising, full curve].

For the compound `Cn1c(CC(=O)Nc2ccccc2)nnc1SCC(=O)Nc1ccc(N2CCOCC2)cc1`, the cell number change was 6.76%. Moreover, the AC50 under setting [1] is 29.1 µM [rising, partial curve, poor fit].

With `Cc1cccc(C(CC(=O)O)NC(=O)C(F)(F)F)c1` (stereo not given), the cell number change was -1.7%. Also, under setting [2], the AC50 was 0.00517 µM [falling, full curve, poor fit].

On to `COc1ccc(CNC(=O)CCC(=O)Nc2nnc(C(F)(F)F)s2)cc1`, for which the cell number change is -34.1%. Besides, the half-maximal activity concentration (AC50) under setting [2] is 8.91 µM [falling, partial curve].

On to `CC(C)CCN(C(=O)c1cc(=O)[nH]c2ccccc12)c1c(N)n(Cc2ccccc2)c(=O)[nH]c1=O`, for which the cell number change came out at 26.5%. Further, the AC50 under setting [1] is 0.366 µM [falling, partial curve].

Regarding `CCNC(=S)N/N=C/c1ccc(C(=O)O)cc1`, the cell number change came out at 34%. The AC50 under setting [2] is 0.0103 µM [rising, full curve, poor fit]. Besides, under setting [1], the AC50 is 0.146 µM [rising, full curve].

As to `CCCn1c(SCCc2ccccc2)nc2c1c(=O)[nH]c(=O)n2C`, the cell number change is -13%. The AC50 under setting [1] is 1.3 µM [rising, full curve, poor fit].

As to `COc1cc2c(cc1OC)CN(C(=O)c1cccc(S(=O)(=O)N3CCc4ccccc43)c1)CC2`, the cell number change is -21.2%.

Take `COc1cc(/C=N/NC(N)=O)cc([N+](=O)[O-])c1O`: the cell number change is -13.8%. The AC50 under setting [1] is 0.92 µM [falling, partial curve].

`C=CCn1c(SCc2nc3ccccc3c(=O)[nH]2)nnc1-c1cc2cc(Cl)ccc2o1`: the cell number change was determined as 31.7%. In addition, the AC50 under setting [2] is 1.84 µM [rising, partial curve, poor fit]. For the same compound, the concentration at half-maximal activity (AC50) under setting [1] was 1.16 µM [rising, single point].

For `Cc1nc(NC(=O)c2ccco2)sc1-c1csc(Nc2ccc(Cl)cc2Cl)n1`, the cell number change is -62.8%. Moreover, the AC50 under setting [2] is 10.3 µM [falling, partial curve]. The AC50 under setting [1] is 18.4 µM [falling, single point].

Regarding `CCc1ccc(C(=O)NC(=S)Nc2ccc(N3CCOCC3)cc2)cc1`, the cell number change is -13.1%. Under setting [1], the AC50 is 29.1 µM [falling, single point].

Turning to `CC(C)(C)N(NC(=O)OCc1ccccc1)C(=O)c1ccccc1Cl`, the cell number change was -10.2%. Further, under setting [1], the AC50 is 20.6 µM [falling, single point].

Take `CC(=O)c1c(C)[nH]c(C(=O)OCC(=O)N2CCCC2=O)c1C`: the cell number change was 1.37%. In addition, the AC50 under setting [1] is 0.58 µM [rising, partial curve, poor fit].

`O=C1NC[C@H](c2ccccc2)N(CCc2cccc3ccccc23)C1=O`: the cell number change was 7.69%. For the same compound, under setting [1], the AC50 was 10.3 µM [rising, partial curve, poor fit].

Turning to `O=C(Nc1ccc(F)cc1)N1CCN(c2nc3ccccc3s2)CC1`, the AC50 under setting [1] was 1.03 µM [falling, partial curve].

For `Cc1cc(C)n(C(C[N+](=O)[O-])c2ccc(Cl)cc2)n1` (stereo not given), the cell number change is -9.68%. Further, under setting [1], the half-maximal activity concentration (AC50) was 0.82 µM [falling, single point].

Turning to `CC1=NN(c2cccc(C(=O)O)c2)C(=O)/C1=C\C=C/c1ccccc1`, the cell number change is -27.1%. In addition, the AC50 under setting [1] was 5.8 µM [falling, full curve].

As for `CCCCCOC(=O)C1=C(C)NC(=O)NC1c1ccccc1OCC` (stereo not given), the cell number change was -2.57%. Besides, the AC50 under setting [1] was 3.26 µM [rising, single point].

Regarding `CC(=O)C(N=Nc1ccccc1)(Sc1nnc(-c2ccccc2)n1-c1ccccc1)C(=O)Nc1ccccc1` (stereo not given), the cell number change stood at 26.1%. Moreover, the AC50 under setting [1] is 2.31 µM [rising, single point].

As to `CCC(C(=O)Nc1ncccn1)(C(F)(F)F)C(F)(F)F`, the cell number change was -97.6%. For the same compound, the AC50 under setting [2] is 29.1 µM [falling, single point].

On to `Cc1cc(NC(=O)CN(C)S(=O)(=O)c2ccc(-c3ccc(=O)[nH]n3)s2)ccc1Br`, for which the half-maximal activity concentration (AC50) under setting [1] was 6.51 µM [rising, single point].

As to `O=C(Cc1ccc2c(c1)CCCC2)Nc1ccccc1Br`, the cell number change is -13.4%. Further, the AC50 under setting [2] was 0.461 µM [falling, single point]. The AC50 under setting [1] was 3.66 µM [falling, single point].

In the case of `CCn1cc(CCC(=O)NC2CCCC2)c2ccccc21`, the cell number change worked out at 95.8%. The AC50 under setting [2] is 29.1 µM [rising, partial curve, poor fit]. The AC50 under setting [1] was 29.1 µM [rising, single point].

Take `CCCC(=O)NC(C)c1nc2ccccc2[nH]1` (stereo not given): the half-maximal activity concentration (AC50) under setting [1] was 5.17 µM [falling, full curve].

Turning to `O=C(Nc1ccccn1)NC12CC3CC(CC(C3)C1)C2`, the cell number change is -38.9%. The AC50 under setting [2] was 23.1 µM [falling, single point]. Further, under setting [1], the AC50 is 6.51 µM [falling, partial curve, poor fit].

Take `CC(=O)c1ccc(OC(=O)/C=C/c2ccccc2)cc1`: the cell number change is -5.59%. Further, the AC50 under setting [1] is 0.731 µM [rising, single point].

Regarding `Cc1cc([N+](=O)[O-])ccc1NC(=O)C(C)[n+]1ccccc1` (stereo not given), the cell number change was -10.1%. Further, under setting [1], the AC50 was 0.58 µM [falling, single point].

Regarding `Cc1cc(C(=O)COC(=O)c2n[nH]c(=O)c3ccccc23)c(C)n1C`, the cell number change was found to be 7.03%.

`N/C(=N\OC(=O)c1cc(Cl)ccc1Cl)c1ccccn1`: the cell number change worked out at 6.03%. The AC50 under setting [1] is 18.4 µM [rising, single point].

Regarding `Cc1ccc(Nc2cc(=O)[nH]c(=O)[nH]2)cc1Cl`, the cell number change was -28.8%. Besides, the half-maximal activity concentration (AC50) under setting [2] is 0.116 µM [falling, full curve, poor fit].

As for `O=C(COC(=O)/C=C/c1ccc(Cl)cc1)NC(=O)NCc1ccccc1`, the cell number change was -50.7%. Further, the concentration at half-maximal activity (AC50) under setting [2] was 20.6 µM [falling, partial curve]. For the same compound, the AC50 under setting [1] is 2.91 µM [falling, partial curve, poor fit].

Take `CC(C)(C)c1cccc(/C=N/O)c1O`: the cell number change was -24.4%. The AC50 under setting [1] was 29.1 µM [falling, single point].

In the case of `CCCCN(C(=O)C1CC(=O)N(c2ccc3c(c2)OCCO3)C1)c1c(N)n(CCCC)c(=O)[nH]c1=O` (stereo not given), the cell number change was -25%. Further, the AC50 under setting [2] was 0.651 µM [falling, full curve].

On to `CCN(C(=O)CSc1nnc(-c2ccncc2)o1)c1ccccc1`, for which the cell number change was 13.6%.

Take `Cc1ccc(C(=O)OCC(=O)Nc2c(C)n(C)n(-c3ccccc3)c2=O)cc1[N+](=O)[O-]`: the cell number change is 7.57%. For the same compound, under setting [2], the concentration at half-maximal activity (AC50) was 7.31 µM [falling, single point]. The AC50 under setting [1] was 6.51 µM [falling, single point].

For the compound `CCc1ccccc1NC(=O)CC(O)(C(=O)OC)C(F)(F)F` (stereo not given), the cell number change is -7.57%. The AC50 under setting [1] is 10.3 µM [falling, partial curve].

Regarding `CC(C)C(C)NC(=O)COc1ccc(OCc2ccccc2)cc1` (stereo not given), the cell number change came out at 16.8%. In addition, the AC50 under setting [1] was 0.82 µM [falling, full curve].

In the case of `COC(=O)CSc1nc2cc3c(cc2cc1C)OCO3`, the cell number change amounted to 10.6%. In addition, the AC50 under setting [1] was 2.59 µM [falling, partial curve].
